No constants are given. Whether binding was seen depends on the method and setting. Binding seen in cells or lysates may run through a third protein. Some results given as binding are weak or reduced against the parent protein; the word gives no strength. For some assays here: Where a sequence is shown, tags or fusion partners need not be part of it.
What was measured:
[1] = biological target: T1, Myc-tagged PPARα (UniProt Q07869); assay: co-IP; exogenous co-IP from HEK293T cells transfected with HA-tagged USP25 and Myc-tagged PPARα; IP lysis buffer, antibody overnight at 4 °C, Protein A/G PLUS-Agarose, Western blot
T1 sequence: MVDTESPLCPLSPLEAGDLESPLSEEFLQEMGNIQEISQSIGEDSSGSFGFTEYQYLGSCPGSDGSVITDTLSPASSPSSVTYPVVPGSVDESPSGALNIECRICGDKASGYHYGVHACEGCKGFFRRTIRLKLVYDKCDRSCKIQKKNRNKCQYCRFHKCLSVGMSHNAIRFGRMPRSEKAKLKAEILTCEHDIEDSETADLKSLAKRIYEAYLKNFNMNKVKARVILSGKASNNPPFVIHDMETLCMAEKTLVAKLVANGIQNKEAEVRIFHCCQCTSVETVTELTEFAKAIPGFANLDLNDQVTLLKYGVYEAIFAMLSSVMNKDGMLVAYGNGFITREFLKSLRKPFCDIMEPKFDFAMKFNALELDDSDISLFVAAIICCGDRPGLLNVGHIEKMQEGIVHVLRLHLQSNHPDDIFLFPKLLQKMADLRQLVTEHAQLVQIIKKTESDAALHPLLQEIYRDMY

[2] = biological target: T2, Peroxisome proliferator-activated receptor alpha (endogenous, mouse liver) (mouse (endogenous in mouse liver)) (UniProt P23204); assay: co-IP; endogenous co-IP from livers of HFD-fed mice; IP lysis buffer, antibody overnight at 4 °C, Protein A/G PLUS-Agarose, Western blot
T2 sequence: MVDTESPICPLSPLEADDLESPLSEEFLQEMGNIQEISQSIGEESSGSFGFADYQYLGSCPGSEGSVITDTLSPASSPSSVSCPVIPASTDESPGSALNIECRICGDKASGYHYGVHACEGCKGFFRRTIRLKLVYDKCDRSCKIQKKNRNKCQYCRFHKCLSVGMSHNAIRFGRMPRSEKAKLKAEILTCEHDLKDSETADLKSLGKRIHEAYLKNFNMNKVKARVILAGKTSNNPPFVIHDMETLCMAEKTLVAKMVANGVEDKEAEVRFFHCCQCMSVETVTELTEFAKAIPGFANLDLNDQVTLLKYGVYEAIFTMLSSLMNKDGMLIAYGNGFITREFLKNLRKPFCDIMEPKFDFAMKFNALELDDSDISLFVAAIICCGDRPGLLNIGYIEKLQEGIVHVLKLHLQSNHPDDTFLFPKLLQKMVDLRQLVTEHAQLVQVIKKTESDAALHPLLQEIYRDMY

Molecule: HA-tagged USP25 (from UniProt Q9UHP3 1-1055) (enzyme)
- binding [1]: binds

B1: Ubiquitin-specific peptidase 25 (endogenous, mouse liver) (enzyme, UniProt P57080 1-1055)
chain: MTVEQNVLQQSAAQKHQQTFLNQLREITGINDAQILQQALKDSNGNLELAVAFLTAKNAKTPPQEETGYYQTALPGNDRYISVGSQADANVIDLTGDDKDDLQRAIALSLAESNRAFRETGITDEEQAISRVLEASIAENKACLKRTPIEVWRDSRNPYDRKRQEKAPVGLKNVGNTCWFSAVIQSLFNLLEFRRLVLNYKPPSNAQDLPRNQKEHRNLPFMRELRYLFALLVGTKRKYVDPSRAVEILKDAFKSNDSQQQDVSEFTHKLLDWLEDAFQMKAEEETDEEKPKNPMVELFYGRFLAMGVLEGKKFENTEMFGQYPLQVNGFKDLHECLEAAMIEGEIESLHSDNSGKSGQEHWFTELPPVLTFELSRFEFNQALGRPEKIHNKLEFPQVLYLDRYMHRNREITRIKREEIKRLKDYLTVLQQRLERYLSYGSGPKRFPLVDVLQYALEFASSKPVCTSPVDDIDASSSASGPLPSQSLPSTTEQQGPCASDLPGSSSPASGAALPLRSVIHKPFTQSRIPPDLPMHPAPRHITEEELCVLESCLHRWRTEIENDTRDLQESISRIHRTIELMYSDKSMIQVPYRLHAVLVHEGQANAGHYWAYIFDHRESRWMKYNDIAVTKSSWEELVRDSFGGYRNASAYCLMYIDDKAQFLIQEEFNKETGQALVGMETLPPDLRDFVEEDNQRFEKELEEWDTQLAQRSLQEKLLAAPKLREAEASATTAQAGGADYLEQPSRSDLSKHWKEETLRVIAKASHDLEDKGPETVLQSAIKLEYSRLVKLAQEDTPPETDYRLHHVLVYFIQNQAPKKIIEKTLLEQFGDRNLSFDERCHNIMKVAQAKLEMIKPEEVNLEEYEEWHADYKKFRETTMYLITGLENFQRESYIDSLLFLLCAYQNNKELLSKGPYRGHDGELISHYRRECLLKLNEQAAELFESGEDGDVNNGLIIMNEFIVPFLPLLLVDDMEEKDILAVEDMRNRWCSYLGQEMEANLQEKLTDFLPKLLDCSTEIKGFHEPPKLPSYSAHELCERFARIMLSLSRTPADGR
- binding [2]: binds

— PMC11570943
